Two substances from patent publication US9683018B2 (priority 2013, dated 2017) can be followed below.

The data set is described as follows: general procedure: Fmoc solid-phase peptide synthesis; 2-chlorotrityl chloride PS-resin (C-terminal acids); BAL-AM-PS-resin loaded with amines (C-terminal N-monosubstituted ca); HBTU/HOBt/NMM (manual synthesis, Example 2).

In the case of pE-R-P-R-hC*-S-H-K-G-P-(D-Nle)-C*-y-OH, the “final HPLC purity” value (cyclisation step, 215 nm) is greater than 95%.

The substance pE-R-P-R-C*-S-H-K-G-P-Nle-C*-F-OH yielded an isolated mass (whole synthesis, scale 0.10 mmol) of 38.5 mg.
